Record: PubChem BioAssay AID720505 (Drosophila RNAi Screening Center, 2013)
Assay: 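Fly regulators or components of the CRAC channel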 (primary screen). Cell system: Drosophila S2R+ cells. Reagent: long dsRNA against Drosophila genes. Treatment: thapsigargin (2 µM) in calcium-free buffer to empty internal stores, then 2 mM calcium added back. Measurement: 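Stores emptied by 2 µM thapsigargin without calcium, then 2 mM calcium re-added; fluo-4 fluorescence followed by FLIPR in 384-well plates, per-well averaged endpoint, raw; two screen passes, some wells retested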. Direction: calcium signal and retest calcium signal: higher = more calcium entry after store depletion. Call rule: 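Knock-downs counted as hits when calcium entry dropped relative to STIM1 positive and Rho1 negative controls present on each plate; roughly 1500 genes called, with reductions of differing size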. Calls: active = called as lowering calcium entry; inactive = not called.
The deposit covers about 20,000 reagents; this is an unselected part of those that have a named target and a result. Of all reagents, about 2,100 (10%) are marked active. 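Raw plate signals without normalisation; calls rest on control-based scores that were not deposited; replicate 2 separates called from uncalled poorly.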 Reagents against one gene are numbered here. Names joined by + are all predicted targets of the reagent. Reagent sequences are not shown. Not given: the amount of reagent, the time to read-out.

gene	reagent no.	calcium signal, replicate 1	calcium signal, replicate 2	retest calcium signal, replicate 1	retest calcium signal, replicate 2	call
clos	1	102	160			inactive
clos	2	137	121			inactive
clos	3	142	129			inactive
clos	4	57.4	155			active
clos	5	100	184			inactive
CG15439	1	109	105			inactive
CG14657	1	85.5	95.5			inactive
CG14657	2	96.3	113			inactive
CG42360	1	135	174			inactive
CG10911	1	177	140			inactive
smash	1	130	94.7			inactive
smash	2	123	86.3			inactive
smash	3	72.7	192			inactive
smash	4	85.4	147			inactive
CG13102	1	121	115			inactive
Nha2	1	236	163			inactive
Nha2	2	174	263			inactive
Nha2	3	226	194			inactive
Gr63a	1	86.5	101			inactive
IA-2	1	127	205	80.6	153	inactive
IA-2	2	127	209			inactive
IA-2	3	104	152			inactive
CG42715 (retired record)	1	98.2	84			inactive
CG4297	1	96.6	99.5			inactive
CG9192	1	114	122			inactive
CG8159	1	91.2	130			inactive
l(3)72Dr	1	95	156			inactive
CG9281	1	107	121			inactive
CG11141	1	153	91.2			inactive
CG12464	1	116	157			inactive
CTCF	1	104	112			inactive
PolE2	1	93.7	105			inactive
CG42272	1	70.7	207			inactive
Pp2C1	1	74.2	97.7			inactive
Pp2C1	2	146	167			inactive
CG5466	1	93.1	152			active
CG5466	2	133	114			inactive
CG7963	1	133	151			inactive
Osi19	1	128	131			inactive
CG31697	1	110	151			inactive
CG32751	1	124	80.6			inactive
unc80	1	128	106			inactive
Hira	1	60	175			active
CG7906	1	82.5	123			inactive
CG10616	1	102	83.9			inactive
SkpE	1	168	96			inactive
CG10031	1	168	121			inactive
shg	1	146	92			inactive
CG31224	1	117	174			inactive
CG31224	2	238	351			inactive
CG42296	1	125	112			inactive
CG11322	1	130	89.6			inactive
Trax	1	113	86.6			inactive
CG14591	1	152	204			inactive
CG10348	1	76.6	94			active
CG10348	2	68.2	184			inactive
CG10348	3	118	167			inactive
koko + Vti1b	1	228	245			inactive
koko + Vti1b	2	195	182			inactive
unc-119	1	228	130			inactive
CG1116	1	128	118			inactive
CG7646	1	104	143			inactive
elav	1	111	121			inactive
p47	1	66.2	213			active
CG33282	1	114	132			inactive
CG9377	1	93.4	110			inactive
Pits	1	120	107			inactive
Pits	2	103	103	5888	109	inactive
Cys	1	134	277			inactive
Sgt1	1	89.3	189			inactive
CG12655	1	173	119			inactive
Ir94h	1	243	107			inactive
pio	1	207	112			inactive
Ugt303A1	1	86.2	72.8			inactive
alphaTub67C	1	53.6	86.4			active
CR31032	1	130	146			inactive
CG3436	1	50.3	69.3			active
CG10283	1	92.7	91.6			inactive
CG3955	1	108	86.4			inactive
CG5880	1	110	143			inactive
CG30398	1	79.8	4653			inactive
Gyc88E	1	96.9	196			inactive
CG14075	1	69.1	129			active

Entries listed so far marked active, once more:
gene	reagent no.	calcium signal, replicate 1	calcium signal, replicate 2	retest calcium signal, replicate 1	retest calcium signal, replicate 2	call
clos	4	57.4	155			active
CG5466	1	93.1	152			active
Hira	1	60	175			active
CG10348	1	76.6	94			active
p47	1	66.2	213			active
alphaTub67C	1	53.6	86.4			active
CG3436	1	50.3	69.3			active
CG14075	1	69.1	129			active
